T/C and survivor count data for 11 compounds are collected here from PubChem BioAssay AID248 (DTP/NCI, 2004).

The list is a part of this screen's results and no random one: it gathers tests that were run many times, whatever their T/C, doses with no T/C, and many T/C values between a quarter and a half above the control. Other doses and runs of a compound stand elsewhere. T/C is the treated group as % of the vehicle group. Some doses have a count of surviving animals in place of a T/C: the source files T/C as zero there, which appears to mark a toxic dose or a test without result, not a measured value. Some survivor counts are full or nearly so, which does not show that the dose was tolerated: survival well below the control is almost never listed, so the zero probably covers shortened survival too. Counts of survivors are from the toxicity check (mostly the fifth day) where no day follows; animals may have died later. Schedules are NCI's codes, taken here to give the interval after Q, in days (D) or hours (H), and the number of doses after X. Some schedule codes hold Z or #, which are not explained here. Some molecules as drawn cover several salts, stereoisomers or complexes of the source; a dose is that of the sample tested. Some doses were run more than once; the values are given in rising order. Where survival is the endpoint, the PubChem record calls one and a half times the control and up active, and a quarter to a half above the control has no call in these data; cut-offs in other NCI protocols can differ.

The test system of this experiment is L1210 leukemia ip in BDF1 mice, survival T/C. Put plainly: NCI In Vivo Anticancer Drug Screen. Data for tumor model L1210 Leukemia (intraperitoneal) in B6D2F1 (BDF1) mice. Particulars: higher T/C = longer survival.
Setting [1] is: T/C endpoint: mean survival time, dose: 400.0 mg/kg/injection, schedule: Q04DX003 (ip), vehicle: saline with Tween-80.
Setting [2] is: T/C endpoint: mean survival time, dose: 200.0 mg/kg/injection, schedule: Q01DX009 (ip), vehicle: saline with Tween-80.

As to `CC[n+]1c(-c2ccccc2)c2cc(N)ccc2c2ccc(N)cc21`, the T/C by setting is: (T/C endpoint: mean survival time, dose: 2.0 mg/kg/injection, schedule: Q01DX Z (ip), vehicle: saline) 130 % of control; (T/C endpoint: mean survival time, dose: 2.5 mg/kg/injection, schedule: Q01DX Z (ip), vehicle: saline) 127 % of control; (T/C endpoint: mean survival time, dose: 5.0 mg/kg/injection, schedule: Q01DX Z (ip), vehicle: saline) 139 % of control; (T/C endpoint: mean survival time, dose: 5.0 mg/kg/injection, schedule: Q#A X Z (ip), vehicle: saline) 141 % of control; (T/C endpoint: mean survival time, dose: 8.0 mg/kg/injection, schedule: Q02DX010 (ip), vehicle: saline) 127 % of control; (T/C endpoint: mean survival time, dose: 10.0 mg/kg/injection, schedule: Q01DX Z (ip), vehicle: saline) 148 % of control. Also, the T/C runs as follows: (T/C endpoint: mean survival time, dose: 12.0 mg/kg/injection, schedule: Q02DX010 (ip), vehicle: saline) 134 % of control; (T/C endpoint: mean survival time, dose: 18.0 mg/kg/injection, schedule: Q02DX010 (ip), vehicle: saline) 133 % of control; (T/C endpoint: mean survival time, dose: 27.0 mg/kg/injection, schedule: Q02DX010 (ip), vehicle: saline) 131 % of control; (T/C endpoint: mean survival time, dose: 30.0 mg/kg/injection, schedule: Q03DX006 (ip), vehicle: saline) 127 % of control; (T/C endpoint: mean survival time, dose: 35.0 mg/kg/injection, schedule: Q01DX001 (ip), vehicle: saline) 127 and 130 % of control; (T/C endpoint: mean survival time, dose: 35.0 mg/kg/injection, schedule: Q07DX003 (ip), vehicle: saline) 137 % of control. Further, the T/C was 126 % of control (T/C endpoint: mean survival time, dose: 80.0 mg/kg/injection, schedule: Q## X024 (ip), vehicle: saline) and 144 % of control (T/C endpoint: median survival time, dose: 10.0 mg/kg/injection, schedule: Q04DX003 (ip), vehicle: water). Moreover, the survivor count by setting is: (T/C endpoint: mean survival time, dose: 20.0 mg/kg/injection, schedule: Q01DX006 (iv), vehicle: saline) 0 of 6; (T/C endpoint: mean survival time, dose: 20.0 mg/kg/injection, schedule: Q## X040 (ip), vehicle: saline) 6 of 10; (T/C endpoint: mean survival time, dose: 20.0 mg/kg/injection, schedule: Q#A X Z (ip), vehicle: saline) 5 of 6; (T/C endpoint: mean survival time, dose: 40.0 mg/kg/injection, schedule: Q01DX006 (iv), vehicle: saline) 0 of 6; (T/C endpoint: mean survival time, dose: 40.0 mg/kg/injection, schedule: Q01DX Z (im), vehicle: saline) 2 of 6; (T/C endpoint: mean survival time, dose: 40.0 mg/kg/injection, schedule: Q01DX Z (ip), vehicle: saline) 5 of 6. Besides, the survivor count is 5 of 6 (T/C endpoint: mean survival time, dose: 40.0 mg/kg/injection, schedule: Q01DX Z (sc), vehicle: saline); 6 of 6 (T/C endpoint: mean survival time, dose: 50.0 mg/kg/injection, schedule: Q04DX003 (ip), vehicle: water); 0 of 10 (T/C endpoint: mean survival time, dose: 80.0 mg/kg/injection, schedule: Q01DX005 (ip), vehicle: saline); 0 of 6 (T/C endpoint: mean survival time, dose: 120.0 mg/kg/injection, schedule: Q03DX006 (ip), vehicle: saline); 4 of 6 (T/C endpoint: mean survival time, dose: 140.0 mg/kg/injection, schedule: Q07DX003 (ip), vehicle: saline); 5 of 10 (T/C endpoint: mean survival time, dose: 160.0 mg/kg/injection, schedule: Q01DX001 (sc), vehicle: saline). The survivor count by setting is: (T/C endpoint: mean survival time, dose: 160.0 mg/kg/injection, schedule: Q01DX003 (ip), vehicle: saline) 6 of 10; (T/C endpoint: mean survival time, dose: 160.0 mg/kg/injection, schedule: Q01DX005 (ip), vehicle: saline) 0 of 10; (T/C endpoint: mean survival time, dose: 160.0 mg/kg/injection, schedule: Q## X008 (ip), vehicle: saline) 6 of 10; (T/C endpoint: mean survival time, dose: 280.0 mg/kg/injection, schedule: Q01DX001 (ip), vehicle: saline) 0 of 6 and 4 of 6; (T/C endpoint: mean survival time, dose: 280.0 mg/kg/injection, schedule: Q07DX003 (ip), vehicle: saline) 2 of 6; (T/C endpoint: mean survival time, dose: 320.0 mg/kg/injection, schedule: Q01DX001 (ip), vehicle: saline) 0 of 10. In addition, the survivor count is on record as 0 of 10 (T/C endpoint: mean survival time, dose: 320.0 mg/kg/injection, schedule: Q01DX001 (sc), vehicle: saline); 0 of 10 (T/C endpoint: mean survival time, dose: 320.0 mg/kg/injection, schedule: Q01DX003 (ip), vehicle: saline); 6 of 10 (T/C endpoint: mean survival time, dose: 320.0 mg/kg/injection, schedule: Q## X008 (ip), vehicle: saline); 3 of 10 (T/C endpoint: mean survival time, dose: 320.0 mg/kg/injection, schedule: Q## X024 (ip), vehicle: saline); 2 of 6 (T/C endpoint: mean survival time, dose: 860.0 mg/kg/injection, schedule: Q04DX003 (ip), vehicle: water); 6 of 8 (T/C endpoint: median survival time, dose: 40.0 mg/kg/injection, schedule: Q01DX009 (ip), vehicle: water).

Turning to `COc1ccc(C(C)(C#N)Nc2ccccc2)cc1` (stereo not drawn), the survivor count under setting [1] is given as 3 of 6.

Consider `O=C1C(Cl)(Cl)C(=O)C(Cl)(Cl)C(=O)C1(Cl)Cl`, for which the survivor count (T/C endpoint: mean survival time, dose: 100.0 mg/kg/injection, schedule: Q04DX002 (ip), vehicle: saline with Tween-80) is listed as 0 of 3; the survivor count (T/C endpoint: mean survival time, dose: 200.0 mg/kg/injection, schedule: Q04DX002 (ip), vehicle: saline with Tween-80) is listed as 0 of 3; the survivor count (T/C endpoint: mean survival time, dose: 400.0 mg/kg/injection, schedule: Q04DX002 (ip), vehicle: saline with Tween-80) is given as 0 of 3.

`O=C(N/N=C/c1ccc(Cl)cc1Cl)C(O)C(O)C(O)C(O)CO` (stereo not drawn): the T/C by setting is: (T/C endpoint: mean survival time, dose: 100.0 mg/kg/injection, schedule: Q01DX009 (ip), vehicle: saline with Tween-80) 87, 88, 89, 96 % of control; under setting [2], 89, 90, 96 % of control; (T/C endpoint: mean survival time, dose: 400.0 mg/kg/injection, schedule: Q01DX009 (ip), vehicle: saline with Tween-80) 88, 89, 90, 96 % of control. Also, the survivor count is on record as 6 of 6 (T/C endpoint: mean survival time, dose: 100.0 mg/kg/injection, schedule: Q04DX003 (ip), vehicle: saline with Tween-80); 3 of 3 under setting [2]; 6 of 6 (T/C endpoint: mean survival time, dose: 200.0 mg/kg/injection, schedule: Q04DX003 (ip), vehicle: saline with Tween-80).

With `N#CCCC#N` (tested in a mixture with another compound), the survivor count under setting [1] is recorded as 2 of 6.

For the compound `CC(=O)Oc1ccc2ccccc2c1/C=C/c1ccncc1`, the survivor count is, setting by setting: (T/C endpoint: mean survival time, dose: 100.0 mg/kg/injection, schedule: Q01DX009 (ip), vehicle: saline) 3 of 6; (T/C endpoint: mean survival time, dose: 200.0 mg/kg/injection, schedule: Q04DX003 (ip), vehicle: saline) 5 of 6; (T/C endpoint: mean survival time, dose: 400.0 mg/kg/injection, schedule: Q04DX003 (ip), vehicle: saline) 5 of 6.

Consider `Cc1cc[n+](Cc2cc3ccccc3[nH]c2=O)cc1`, for which the survivor count (T/C endpoint: mean survival time, dose: 100.0 mg/kg/injection, schedule: Q01DX001 (ip), vehicle: saline) is on record as 3 of 6; the survivor count (T/C endpoint: mean survival time, dose: 200.0 mg/kg/injection, schedule: Q01DX001 (ip), vehicle: saline) is on record as 0 of 6; the survivor count (T/C endpoint: mean survival time, dose: 400.0 mg/kg/injection, schedule: Q01DX001 (ip), vehicle: saline) is listed as 0 of 6.

As for `O=Nc1c(O)[nH]c(=O)[nH]c1=O`, the survivor count (T/C endpoint: mean survival time, dose: 400.0 mg/kg/injection, schedule: Q01DX001 (ip), vehicle: Klucel (hydroxypropylcellulose) (HPC)) is on record as 0 of 6.

In the case of `CC(C)O/N=C(/N)N=C(N)N`, under “T/C endpoint: mean survival time, dose: 400.0 mg/kg/injection, schedule: Q01DX001 (ip), vehicle: other”, the survivor count was 0 of 6.

Take `O=[N+]([O-])/C=C/C(Cl)(Cl)Cl`: the survivor count is, setting by setting: (T/C endpoint: mean survival time, dose: 100.0 mg/kg/injection, schedule: Q01DX009 (ip), vehicle: Klucel (hydroxypropylcellulose) (HPC)) 0 of 6; (T/C endpoint: mean survival time, dose: 200.0 mg/kg/injection, schedule: Q01DX009 (ip), vehicle: Klucel (hydroxypropylcellulose) (HPC)) 0 of 6.

In the case of `C#CC(=O)C(CC)CCCC` (stereo not drawn), the survivor count reads like this: (T/C endpoint: mean survival time, dose: 25.0 mg/kg/injection, schedule: Q01DX009 (ip), vehicle: saline with Tween-80) 3 of 6; (T/C endpoint: mean survival time, dose: 75.0 mg/kg/injection, schedule: Q01DX009 (ip), vehicle: saline with Tween-80) 0 of 6; (T/C endpoint: mean survival time, dose: 150.0 mg/kg/injection, schedule: Q01DX009 (ip), vehicle: saline with Tween-80) 0 of 6; (T/C endpoint: mean survival time, dose: 300.0 mg/kg/injection, schedule: Q01DX009 (ip), vehicle: saline with Tween-80) 0 of 6.
